Data reported in PMC12040169 (PLOS Biology, 2025).
This is one part of the list.

System: T1, CTL2-GFP (C. trachomatis L2/434/Bu, GFP-expressing)
T1 construct: L2/434/Bu, GFP-expressing
Design: species or system HeLa; Intracellular C. trachomatis growth in HeLa cells, bulk GFP fluorescence relative to DMSO
Settings: bulk GFP, single well; 28.5 h, 10 µM; inhibitor

Row | Compound | % of control remaining [%]
1 | Cc1nc(C)n(CC2CCCN(Cc3cn4ccccc4c3C#N)C2)n1 (stereo not shown) [CBK306103] | 126.948
2 | Cc1ccc2nc(-c3ccc(NC(=O)CSc4nc(-c5ccccc5)cc(=O)[nH]4)cc3)sc2c1 [CBK265861] | 195.838
3 | CC(=O)N1CCC2(C/C=C/C[C@H]3CN(C(=O)CC4CCOCC4)CC[C@H]3NC(=O)CNC2=O)CC1 [CBK292109] | 127.979
4 | O=C(CSc1nc2cc(Cl)ccc2[nH]1)Nc1ccccc1F [CBK269916] | 90.3135
5 | c1ccc(CSc2nnc(-c3ccco3)o2)cc1 [CBK026283] | 118.422
6 | CN(C(=O)C1(NC(N)=O)CC1)c1nc2c(s1)CC(c1ccccc1)CC2 (stereo not shown) [CBK306022] | 105.301
7 | CC(C)n1c(=O)c2c(-c3cc(C(C)(C)C)no3)ncn2c2ccccc21 [CBK016666] | 132.866
8 | COc1ccc(-c2n[nH]c(=S)n2CC(=O)N2CCN(c3cccc(C)c3)CC2)cc1 [CBK295352] | 148.193
9 | Nc1n[nH]c(=O)c2ncn([C@H]3C[C@@H](O)[C@@H](CO)O3)c12 [CBK201233] | 151.933
10 | FC(F)(F)c1cccc(Nc2cncc(-c3cccs3)n2)c1 [CBK065750] | 117.93
11 | COc1ccc2ccccc2c1CN1CCN(C/C=C/c2ccccc2)CC1 [CBK261899] | 93.9719
12 | CC(C)(C)c1cc(C(=O)O)[nH]n1 [CBK260874] | 104.813
13 | CCc1nc(CN2CCOC(c3ccc(F)cc3)C2)cs1 (stereo not shown) [CBK305090] | 120.694
14 | COc1nc2ccccc2nc1CCC(=O)NC(C)c1ccccc1 (stereo not shown) [CBK270065] | 109.263
15 | CCN1CCN(Cc2c(C3CCCC3)[nH]c3ncccc23)CC1 [CBK285386] | 118.687
16 | CC(C)c1ccc(-c2cncc(NCCCN3CCOCC3)n2)cc1 [CBK065196] | 175.385
17 | Nc1ncc(-c2ccc(C(=O)N3CCOCC3)cc2)cc1C(=O)NCCc1ccc(O)cc1 [CBK158577] | 116.578
18 | N#Cc1c(N)nc2c(c1-c1ccc(Cl)cc1)CCCCCCCCCC2 [CBK262322] | 100
19 | CN(C(=O)c1cc[nH]n1)C1CCN(c2ncnc3ccccc23)CC1 [CBK305916] | 121.587
20 | COc1ccc(N2CCN(c3nc(NCCO)nc(N4CCOCC4)n3)CC2)cc1 [CBK265413] | 111.193

Row | Compound | % of control remaining [%]
21 | COc1ccc(-c2cc(-c3nnc(S)n3-c3ccccc3Cl)[nH]n2)cc1 [CBK265880] | 100
22 | O=C(NCc1ccc(Cl)cc1)c1cnc(-c2cccc(C(F)(F)F)c2)c(-c2ccncc2)c1 [CBK037607] | 154.324
23 | Cn1cc(CN2C3CCC(C3)[C@@H]2COc2ccc(F)cc2)cn1 (stereo partly shown) [CBK282257] | 95.8489
24 | CCC1(O)C(C)C(c2ccc(Cl)cc2)NC(c2ccc(Cl)cc2)C1C (stereo not shown) [CBK025376C] | 79.1492
25 | CC(C)C(=O)N1CCCc2cc(C(O)CN3CCCCC3)ccc21 (stereo not shown) [CBK282127] | 151.73
26 | O=C(CSc1nc(-c2cccs2)cc(C(F)(F)F)n1)N1CCSCC1 [CBK307371] | 118.58
27 | O=S(=O)(Nc1nnc(C(F)(F)F)s1)c1ccc(F)cc1 [CBK026663] | 96.9426
28 | O=C1CC[C@@H](NCc2ccncc2)[C@H](c2cc(F)cc(F)c2)N1 [CBK283131] | 104.698
29 | Cc1cc(NS(=O)(=O)c2ccc(NC(=S)NCC3CCCO3)cc2)no1 (stereo not shown) [CBK268160] | 58.4479
30 | O=C(O)C1CC=CCC1C(=O)Nc1ccc(S(=O)(=O)N2CCCc3ccccc32)cc1 (stereo not shown) [CBK268179] | 113.933
31 | CN(C)S(=O)(=O)c1cc(C(=O)Nc2ccc(O)cc2)c(Cl)cc1Cl [CBK266767] | 114.876
32 | O=C(CNC(=O)c1ccccc1C(=O)O)Nc1ccccc1 [CBK286690] | 111.907
33 | CN(C)c1ccc(C(=O)N2CCC(c3cc4cnccc4[nH]3)CC2)cc1 [CBK283446] | 132.953
34 | Cc1ccc(OCc2occc2C(=O)N2CCc3[nH]cnc3C2)cc1 [CBK307717] | 150.39
35 | CCCC/C(=N/N=C(\CCCC)c1ccncc1)c1ccncc1 [CBK016521] | 94.2791
36 | COc1ccc(/C=C(\C)C(=O)Nc2cccc(N3CCNCC3)c2)cc1OC [CBK034115T] | 100
37 | Cc1ccc(C)c2c(C)c(C(=O)N3CCC(O)C(C)C3)[nH]c12 (stereo not shown) [CBK282527] | 118.274
38 | O=C(OCCC1SC(NC2CC3C=CC2C3)=NC1=O)c1ccc(Cl)c(Cl)c1 (stereo not shown) [CBK200056T] | 103.807
39 | O=S(=O)(NC1CCN(Cc2ccccc2)CC1)c1cccc2nonc12 [CBK062030] | 92.8587
40 | NC(=O)c1ccc(-c2nccnc2NCc2ccc3c(c2)OCO3)cc1 [CBK036696] | 218.266

Exported as labelled records: 2 of the compounds above
O=C1CC[C@@H](NCc2ccncc2)[C@H](c2cc(F)cc(F)c2)N1 [CBK283131]
  % of control remaining [%]: 104.698
COc1ccc(/C=C(\C)C(=O)Nc2cccc(N3CCNCC3)c2)cc1OC [CBK034115T]
  % of control remaining [%]: 100
